Results: PMC10492807

Chains of the proteins cited; added tags and fusions are not shown. Lines headed by an entry give the natural chain unless they say otherwise; changes in a name come on top.
UniProt A0A2X4SXG2: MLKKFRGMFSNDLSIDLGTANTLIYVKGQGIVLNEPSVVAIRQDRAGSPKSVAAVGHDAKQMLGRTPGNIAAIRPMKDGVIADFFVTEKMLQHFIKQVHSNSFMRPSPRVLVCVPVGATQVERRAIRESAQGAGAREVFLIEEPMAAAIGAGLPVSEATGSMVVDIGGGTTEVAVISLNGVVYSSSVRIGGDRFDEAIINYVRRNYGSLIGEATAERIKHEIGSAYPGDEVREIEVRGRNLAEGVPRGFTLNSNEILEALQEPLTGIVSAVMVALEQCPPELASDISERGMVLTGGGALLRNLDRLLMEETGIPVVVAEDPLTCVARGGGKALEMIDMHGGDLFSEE
UniProt A0A2X4TC34: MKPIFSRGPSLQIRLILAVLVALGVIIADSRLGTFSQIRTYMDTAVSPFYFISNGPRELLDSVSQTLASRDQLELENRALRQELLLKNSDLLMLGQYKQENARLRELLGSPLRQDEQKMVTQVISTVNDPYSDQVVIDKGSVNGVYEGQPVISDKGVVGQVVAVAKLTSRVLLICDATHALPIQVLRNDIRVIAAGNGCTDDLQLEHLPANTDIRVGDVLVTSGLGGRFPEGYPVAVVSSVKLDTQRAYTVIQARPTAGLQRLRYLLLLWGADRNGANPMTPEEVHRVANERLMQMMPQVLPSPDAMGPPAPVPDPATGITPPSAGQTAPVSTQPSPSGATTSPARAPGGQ
UniProt A0A8G0F5U8: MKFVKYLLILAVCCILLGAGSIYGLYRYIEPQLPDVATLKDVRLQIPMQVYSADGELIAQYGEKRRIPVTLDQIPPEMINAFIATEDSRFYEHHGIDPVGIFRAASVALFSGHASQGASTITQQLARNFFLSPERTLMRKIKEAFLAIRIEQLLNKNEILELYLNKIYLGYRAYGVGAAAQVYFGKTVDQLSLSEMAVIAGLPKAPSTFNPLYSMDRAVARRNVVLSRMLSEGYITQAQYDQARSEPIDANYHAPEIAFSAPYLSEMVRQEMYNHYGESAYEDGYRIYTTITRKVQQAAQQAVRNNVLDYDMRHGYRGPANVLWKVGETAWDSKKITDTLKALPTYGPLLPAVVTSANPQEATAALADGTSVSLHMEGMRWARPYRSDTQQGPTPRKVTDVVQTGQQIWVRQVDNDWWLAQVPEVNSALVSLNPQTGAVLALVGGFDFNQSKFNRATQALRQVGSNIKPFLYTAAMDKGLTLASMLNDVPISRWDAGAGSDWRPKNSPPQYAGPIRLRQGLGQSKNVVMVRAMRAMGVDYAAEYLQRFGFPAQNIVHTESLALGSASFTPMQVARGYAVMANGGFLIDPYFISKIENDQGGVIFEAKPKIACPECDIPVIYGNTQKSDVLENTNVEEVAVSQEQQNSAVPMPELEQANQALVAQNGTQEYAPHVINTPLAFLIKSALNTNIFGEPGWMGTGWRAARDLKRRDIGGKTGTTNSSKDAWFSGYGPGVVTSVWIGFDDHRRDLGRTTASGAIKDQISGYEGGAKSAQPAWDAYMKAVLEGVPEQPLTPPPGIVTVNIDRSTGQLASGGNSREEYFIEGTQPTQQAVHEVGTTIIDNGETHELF
UniProt A0A4Z0KQS0: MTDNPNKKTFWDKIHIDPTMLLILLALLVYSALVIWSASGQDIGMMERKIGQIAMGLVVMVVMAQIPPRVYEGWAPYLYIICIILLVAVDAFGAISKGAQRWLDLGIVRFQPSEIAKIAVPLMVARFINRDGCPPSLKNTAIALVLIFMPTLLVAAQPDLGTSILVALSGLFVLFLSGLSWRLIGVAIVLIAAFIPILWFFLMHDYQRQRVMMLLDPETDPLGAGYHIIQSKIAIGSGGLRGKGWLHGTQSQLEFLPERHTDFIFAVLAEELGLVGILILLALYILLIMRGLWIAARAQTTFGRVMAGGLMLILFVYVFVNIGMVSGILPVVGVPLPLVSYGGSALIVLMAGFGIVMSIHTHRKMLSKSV

Legend:
[1] = molecular target: T1, PBP2SAL-3xFLAG (Salmonella enterica serovar Typhimurium) (UniProt E1WGF1); assay: affinity purification with mass spectrometry; high-molecular-weight complexes cross-linked in vivo with DSS, pulled down with anti-PBP2 or anti-FLAG (PBP2SAL-3xFLAG) from membrane fractions of WT, ΔmrdA and ΔPBP2SAL cells grown in acidic pH; in-gel trypsin digestion, LC-MS/MS, Skyline
T1 sequence: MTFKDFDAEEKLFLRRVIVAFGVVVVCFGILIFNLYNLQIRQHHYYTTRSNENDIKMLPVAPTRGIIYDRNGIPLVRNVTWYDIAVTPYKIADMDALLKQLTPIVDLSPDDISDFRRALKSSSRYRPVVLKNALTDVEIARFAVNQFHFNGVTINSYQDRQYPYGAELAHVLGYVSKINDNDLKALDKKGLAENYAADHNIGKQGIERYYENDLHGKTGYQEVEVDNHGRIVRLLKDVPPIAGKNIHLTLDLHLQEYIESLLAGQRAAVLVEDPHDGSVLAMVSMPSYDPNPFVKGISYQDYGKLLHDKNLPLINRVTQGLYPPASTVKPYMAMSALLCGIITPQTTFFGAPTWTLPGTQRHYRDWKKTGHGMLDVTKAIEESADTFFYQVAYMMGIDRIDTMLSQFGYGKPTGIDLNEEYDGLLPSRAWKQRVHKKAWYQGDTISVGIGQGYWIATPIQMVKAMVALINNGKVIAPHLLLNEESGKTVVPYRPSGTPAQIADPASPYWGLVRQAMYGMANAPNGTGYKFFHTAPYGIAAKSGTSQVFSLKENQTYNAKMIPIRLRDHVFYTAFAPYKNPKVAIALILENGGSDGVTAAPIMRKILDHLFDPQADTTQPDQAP

[2] = molecular target: PBP2 (MrdA) (Salmonella enterica serovar Typhimurium (endogenous in strain SV5015, SL1344 hisG+)); assay: as above

With DacA (PBP5) (enzyme) the binding [1] was “binds”.

In the case of DacB (PBP4) (enzyme), the binding [1] is reported as “binds”.

DacC (PBP6) (enzyme) was tested, and the binding [1] was “binds”.

With DacD (PBP6b) (enzyme) the binding [1] was “binds”.

In the case of MepM (enzyme), the binding [1] is reported as “no binding”.

For MepS (enzyme), the binding [1] was “no binding”.

For MreB (from UniProt A0A2X4SXG2 1-347), the binding [1] was “binds”.

For MreC (from UniProt A0A2X4TC34), the binding [1] was “binds”.

“PBP1a (from UniProt A0A8G0F5U8) (enzyme)” was tested, and the binding [1] was “binds weakly”.

In the case of PBP1b (enzyme), the binding [1] is reported as “binds”.

For PBP2 (MrdA) (enzyme), the binding [1] was “no binding”.

For “RodA (MrdB) (from UniProt A0A4Z0KQS0) (enzyme)”, the binding [1] was “binds”.

RodZ was tested, and the binding [1] was “binds”.

B1: PBP2SAL-3xFLAG (enzyme, UniProt E1WGF1 1-623)
chain: T1 sequence
B1 was tested, and the binding [2] was “no binding”.

These are yes or no findings as the source states them, for the method shown. In cells and extracts the contact can be indirect. Here binding means that the protein was enriched with, or labelled near, the bait; the list need not be complete. No binding means not detected with the bait. Tags and fused reporters may be left off the sequences shown.
